PubChem BioAssay AID504784, Drosophila RNAi Screening Center – 2011

Screen: 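Fly genes whose silencing alters how much lipid cells keep in droplets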 (primary screen)
Cell system: Drosophila Kc167 embryonic cells
Reagent: long dsRNA against Drosophila genes, about 250 ng dsRNA per well
Duration: 4 days
Challenge: cells fed 400 µM oleic acid bound to BSA
Measurement: 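Microscope images give a droplet-to-nucleus area ratio, taken as log and converted to a screen-wide B-score; higher values mean greater lipid storage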
Scale: droplet/nuclear area B-score: higher = more stored lipid (overstorage)
In all, the deposit lists about 17,000 reagents; below is an unselected part of those with a known target gene and a result. 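Each column is one replicate's B-score; the combined score over replicates was not deposited, so single values may mislead.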 The numbers tell different reagents against one gene apart. Names joined by + are all predicted targets of the reagent. Further read-outs or replicates are left out here.

The first 7 records, ahead of the listing:
predicted target	reagent no.	droplet/nuclear area B-score, replicate 1	droplet/nuclear area B-score, replicate 2
Iswi (Imitation SWI)	1	0.461	0.818
betaTub56D (beta-Tubulin at 56D)	1	-0.0104	-0.221
Rbp1 (RNA-binding protein 1)	1	1.54	0.477
Ask1 (Apoptotic signal-regulating kinase 1)	1	1.1	0.0113
Ask1 (Apoptotic signal-regulating kinase 1)	2	-0.278	-0.0752
DNAlig4 (DNA ligase 4)	1	0.744	0.554
CG42260	1	2.41	0.324

Results, repeating the preview:
predicted target	reagent no.	droplet/nuclear area B-score, replicate 1	droplet/nuclear area B-score, replicate 2
Iswi (Imitation SWI)	1	0.461	0.818
betaTub56D (beta-Tubulin at 56D)	1	-0.0104	-0.221
Rbp1 (RNA-binding protein 1)	1	1.54	0.477
Ask1 (Apoptotic signal-regulating kinase 1)	1	1.1	0.0113
Ask1 (Apoptotic signal-regulating kinase 1)	2	-0.278	-0.0752
DNAlig4 (DNA ligase 4)	1	0.744	0.554
CG42260	1	2.41	0.324
CG42260	2	-0.236	-0.144
CG42260	3	0.509	-0.643
bun (bunched)	1	0.025	-0.0534
bun (bunched)	2	3.62	0.876
bun (bunched)	3	1.19	1.58
CG4073	1	-0.4	3.89
CG11714	1	-0.271	-0.562
CG4546	1	-2.31	0.0589
CG4646	1	0.542	1.47
EMC1 (ER membrane protein complex subunit 1)	1	2.15	-0.381
Oscillin	1	3.26	-0.726
Ufd4 (Ubiquitin fusion-degradation 4-like)	1	-0.368	-0.186
Mccc2 (Methylcrotonoyl-CoA carboxylase 2)	1	-1.37	-0.243
Ada1-1 + Ada1-2	1	0.586	-0.0679
Ada1-1 + Ada1-2	2	1.4	0.0101
DCTN1-p150 (Dynactin 1, p150 subunit)	1	-1.16	-0.172
Targ2 (Terminal ADP-ribose protein glycohydrolase 2)	1	0.995	0.561
Fbl6 (F-box and leucine-rich repeat protein 6)	1	-0.829	-0.674
CG7194	1	-0.582	-1.14
CG2901	1	0.114	-0.126
Uch-L5 (Ubiquitin carboxy-terminal hydrolase L5)	1	-0.471	-0.328
CG32655	1	0.935	-0.618
sphinx1	1	-0.737	-1.14
mTerf3 (mitochondrial transcription termination factor 3)	1	1.82	0.0209
CG32537	1	-0.0113	0.412
CG5565	1	1.26	-1.06
CG16904	1	-0.0162	-0.477
CG15435	1	0.719	0.615
SerRS-m (Seryl-tRNA synthetase, mitochondrial)	1	-0.689	-1.16
CG12213	1	2.35	1.4
CG12213	2	3.11	0.0175
muskelin	1	-0.446	-0.198
CG42560 + CG42559	1	0.0261	1.27
CG30026	1	0.158	0.0119
Madm (MLF1-adaptor molecule)	1	-0.00145	0.921
CG7365	1	-0.912	-0.846
CG30278	1	-0.12	-0.0325
CG7872	1	1.11	2.46
Ugt302C1 (UDP-glycosyltransferase family 302 member C1)	1	0.703	0.00648
Rpn7 (Regulatory particle non-ATPase 7)	1	0.0102	-0.158
Atet (ABC transporter expressed in trachea)	1	-0.0918	-1.02
CG33468	1	0.194	-0.429
CG9590	1	1.82	0.00824
CG7369	1	-0.594	-0.503
mst (misato)	1	-1.98	1.46
CG18301	1	0.439	2.5
CG6900 (retired record)	1	1.86	-0.353
Liprin-gamma	1	1.15	0.235
CG5177	1	-0.458	-0.0314
Vha16-3 (Vacuolar H[+] ATPase 16kD subunit 3)	1	0.451	0.263
Hsp70Aa + Hsp70Ab	1	3.8	3.91
CG31380	1	0.478	-0.797
CG8952	1	-0.0394	-0.677
CG13315	1	-0.519	0.0468
Dh44-R2 (Diuretic hormone 44 receptor 2)	1	-2.41	-0.153
Dh44-R2 (Diuretic hormone 44 receptor 2)	2	-1.16	0.555
PGAP5 (Post-GPI attachment to proteins 5)	1	0.298	-0.0404
CG32091	1	1.17	1.51
CG32091	2	-0.177	-0.168
FoxP (Forkhead box P)	1	-0.0337	-0.462
FoxP (Forkhead box P)	2	-1.12	0.98
RpL36A (Ribosomal protein L36A)	1	2.72	2.75
CG17224	1	0.393	-0.00476
Prx2 (Peroxiredoxin 2)	1	0.0467	0.742
ND-ACP	1	-0.651	-1.21
Spt6	1	-3.01	-5.14
Spec2 (retired record)	1	-0.134	0.328
Spec2 (retired record)	2	2.76	-2.94
Acp32CD (Accessory gland protein 32CD)	1	0.00317	0.206
hgo (homogentisate 1,2-dioxygenase)	1	0.137	-0.13
RpL7-like + CG34164	1	0.529	-0.762
RpL7-like + CG34164	2	0.857	0.504
CG42354 + CG42353	1	4.32	2.93
CG5968	1	-0.148	0.87
CG11357	1	1.67	1.71
rudhira	1	-0.00208	-1.51
rudhira	2	2.14	-1.32
rudhira	3	1.09	1.89
Ts (Thymidylate synthase)	1	0.942	-0.476
Ts (Thymidylate synthase)	2	-0.178	-1.43
hrg (hiiragi)	1	0.565	-1.78
CG31900 (retired record)	1	0.619	1.19
Menl-2 + Menl-1	1	0.681	-0.0858
Menl-2 + Menl-1	2	-1.23	-1.45
CG40053 (retired record)	1	1.9	0.122
CG13850	1	-0.199	2.88
Elo68beta (Elongase 68beta)	1	-0.0918	-0.801
DNAlig1 (DNA ligase 1)	1	3.43	1.69
Unc-115b + p24-2 + Unc-115a	1	1.49	3.54
CG33966	1	0.804	0.00621
CG31272	1	-1.54	-1.35
Idh3b (Isocitrate dehydrogenase 3b)	1	0.0225	-1.27
wun (wunen)	1	0.0253	0.0237
CG5888	1	-2.45	-0.108
CG16762	1	0.0705	1.02
CG16964	1	0.758	-0.169
fru (fruitless)	1	1.34	0.536
fru (fruitless)	2	-2.81	-1.91
fru (fruitless)	3	-1.02	-4.32
fru (fruitless)	4	0.233	-0.114
